Test results published in PubChem BioAssay AID1347076 (National Center for Advancing Translational Sciences (NCATS), 2019).
“And” between values parts separate entries of the source, which are not always exact repeats. Equal entries are not always repeated. In all, about 400,000 compounds went through this assay and about 13,000 (3.2%) were called active. Inconclusive results, whose numbers are uncertain, are shown with a selection of clear calls. Calls follow the shape of the dose curve; as a rule, active = well fitted cell-killing curve with a large enough effect; inconclusive = small, poorly fitted or top-dose-only effect, or effect the other way; inactive = flat fitted curve, though single readings scatter. A potency beside an inconclusive call is a rough fit, not a confirmed value.

Experiment: qHTS assay for MDR1-selective chemotherapeutics: Primary screen using the drug-selected MDR subline cells KB-V1; also: nearly all actives have a fitted effect of over 60% in size
Details: KB-V1 MDR cells viability, CellTiter-Glo, 72 h; activity change, negative = cytotoxicity: at 46.1 µM (top of the series)
Outline: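 KB-V1 MDR subline cells in DMEM (phenol-red free, 10% FBS) exposed to compounds in qHTS concentration series for 72 h at 37 degrees C. Viability read by CellTiter-Glo luminescence; concentration-effect curves fitted after normalization and correction.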
% is scaled to controls: 0 for no effect and ±100 for the full control effect; potency is read from the fitted curve at half-maximal effect.

SMILES | activity change, negative = cytotoxicity | Potency
O=C(Cc1ccsc1)NNC(=O)c1cccc(Cl)c1 | inconclusive: 0.361% | –
Cc1ccc(-n2[nH]c(C)c(/C=N/Nc3ccc([N+](=O)[O-])cc3[N+](=O)[O-])c2=O)cc1C | – | active: 13 µM
C/C(=N\Nc1nc(N2CCOCC2)nc(N2CCOCC2)n1)c1cccs1 | – | inactive
CNc1nc2ccccc2n1/N=C/c1cccc(OC)c1OC | – | active: 8.2 µM
Cc1ccc([C@@H]2[C@@H]3C(=O)N(C)C(=O)[C@@H]3[C@]3(C)C(=O)N(CC4CC4)CC(=O)N23)o1 | – | inactive
Cc1ccc(CN2CCN(CCCc3ccccc3)CC2CCO)cc1 (stereo not drawn) | – | inconclusive: 0.0651 µM [cytotoxic, full curve, poor fit]
CCOC(=O)N1CCC(NC(=O)c2cc(COc3ccccc3SC)on2)CC1 | – | active: 9.2 µM
CN1c2ccsc2C(O)=C(C(=S)Nc2ccccc2)S1(=O)=O | – | inactive
CC(=O)Nc1ccccc1-c1nc2ccccc2n(CC(=O)Nc2ccc(C)c(Cl)c2)c1=O | – | inactive
CSc1ccc(CN2CCC2(C)C(=O)NCc2ccc3c(c2)OCO3)cc1 (stereo not drawn) | – | inactive
Cc1ccc(C)c(S(=O)(=O)c2cn(C)c3cc(F)c(F)cc3c2=O)c1 | – | inactive
CCc1cccc(NC(=O)c2c(N3CCCC3=O)c3cc(C)ccc3n2C)c1 | – | active: 18.4 µM
Cc1ccc(N2C(=O)Nc3ccccc3S2(=O)=O)cc1Cl | – | inactive
CCOc1ccc(C(=O)NCC(=O)OCc2c(C)noc2C)cc1OCC | – | inconclusive: 23.1 µM [cytotoxic, single point]
Cc1oc(-c2ccccc2F)nc1CS(=O)(=O)CC(=O)N1CCN(c2ccc(Cl)cc2)CC1 | – | inactive
Cc1nc(C)n(CC(O)COc2ccc(C(=O)c3ccccc3)cc2)n1 (stereo not drawn) | – | inconclusive: 18.4 µM [cytotoxic, single point]
C[C@H]1CN([C@@H](C)CO)C(=O)c2cc(Br)cnc2O[C@H]1CN(C)S(=O)(=O)c1ccccc1F | – | inconclusive: 8.2 µM [cytotoxic, partial curve]
COc1ccc(CNC(=O)c2nnn(-c3cccc(C(F)(F)F)c3)c2N)cc1 | – | inconclusive: 23.1 µM [cytotoxic, partial curve]
NC(=O)NC(Cc1ccccc1)C(=O)N1CCN(S(=O)(=O)c2ccc(Cl)cc2)CC1 (stereo not drawn) | – | inactive
CCCCn1c(SCC(=O)Nc2ccccc2C(F)(F)F)nc2ccsc2c1=O | – | active: 2.59 µM
COc1ccccc1N1CCN(C(=O)c2ccc(Cl)c(S(=O)(=O)N3CCOCC3)c2)CC1 | – | inconclusive: 7.31 µM [cytotoxic, partial curve]
O=C(Nc1cc(-c2nc3ncccc3o2)ccc1Cl)c1cccs1 | – | inconclusive: 10.3 µM [cytotoxic, partial curve, poor fit]
Fc1ccc(CCNC(=S)Nc2ccc(F)cc2)cc1 | – | inconclusive: 29.1 µM [cytotoxic, single point]
N#Cc1c(N)sc2c1CCN(C(=O)OCc1ccccc1)C2 | – | inconclusive: 16.4 µM [cytotoxic, single point]
COc1ccccc1NC(=O)c1c(Nc2ccccc2C)sc(C(=O)Nc2cccc(Cl)c2)c1N | – | inconclusive: 3.66 µM [cytotoxic, full curve, poor fit]

Quoted at random: 3 compounds from above.
SMILES | activity change, negative = cytotoxicity | Potency
CCc1cccc(NC(=O)c2c(N3CCCC3=O)c3cc(C)ccc3n2C)c1 | – | active: 18.4 µM
Cc1nc(C)n(CC(O)COc2ccc(C(=O)c3ccccc3)cc2)n1 (stereo not drawn) | – | inconclusive: 18.4 µM [cytotoxic, single point]
Cc1ccc([C@@H]2[C@@H]3C(=O)N(C)C(=O)[C@@H]3[C@]3(C)C(=O)N(CC4CC4)CC(=O)N23)o1 | – | inactive

Carrying on:

SMILES | activity change, negative = cytotoxicity | Potency
c1ccc(Cn2c(NCc3ccncc3)nc3ccccc32)cc1 | – | inconclusive: 23.1 µM [cytotoxic, single point]
Cc1ccc(NC(=O)c2ccc(S(=O)(=O)N3CCCCC3)cc2)cc1 | – | inactive
O=C(O)COc1ccc(Br)cc1C(c1c(C(=O)O)[nH]c2ccccc12)c1c(C(=O)O)[nH]c2ccccc12 | – | inactive
O=S(=O)(Nc1ncnc2sc3c(c12)CCC3)c1cc(F)ccc1F | – | inconclusive: 20.6 µM [cytotoxic, single point]
Cc1ccc2c(CN3CCN(S(=O)(=O)c4ccc5c(c4)OCCO5)CC3)cc(=O)oc2c1C | – | inactive
CC(C)C[C@H]1CN(CCCC[C@H]2CNC(=O)C(=O)N2CC2CCCCC2)C(=O)C(=O)N1CCC1CCCCC1 | – | inconclusive: 0.58 µM [rising, full curve, poor fit]
O=[N+]([O-])c1ccc2[nH]c3c(c2c1)CCCC3 | – | inconclusive: 29.1 µM [cytotoxic, single point]
CC1(C(=O)NS(=O)(=O)c2ccccc2)CCN1C(=O)C/C=C/c1ccccc1 (stereo not drawn) | – | inactive
O=C(NCc1ccc2c(c1)OCO2)c1ccc2c(c1)N(Cc1ccccc1F)C(=O)c1ccccc1S2=O (stereo not drawn) | – | inactive
CC1CCc2ccccc2N1CC(=O)Nc1cccc(S(=O)(=O)N2CCCC2)c1 (stereo not drawn) | – | inconclusive: 23.1 µM [cytotoxic, single point]
CCOC(=O)N1CCN(c2nc(-c3ccccc3)c3ccccc3n2)CC1 | – | inactive
COC(=O)C1=C(C)N(c2ccc(C)c(C)c2)/C(=C/c2ccco2)C1=O | – | inconclusive: 29.1 µM [cytotoxic, single point]
CC1CCCCN1C(=S)Nc1ccc(OC(F)F)cc1 (stereo not drawn) | – | inconclusive: 11.6 µM [cytotoxic, partial curve]
C/C(=N\NC(N)=S)c1ccccc1 | – | inconclusive: 14.6 µM [cytotoxic, partial curve]
Cc1cn([C@H]2C[C@H](O)[C@@H](/C=C/C(=O)NCCN3CCCCC3)O2)c(=O)[nH]c1=O | – | inactive
Cc1ccc2nc(-c3ccco3)c(CC3CCCCC3)n2c1 | – | inactive
COc1ccc(CCNC(=O)c2cc(=O)c3cc(C)ccc3o2)cc1OC | – | inconclusive: 2.91 µM [cytotoxic, full curve]
CO/N=C/C(C#N)c1ncc(C(F)(F)F)cc1Cl (stereo not drawn) | – | inactive
C#CCOCCOCCOCCNc1nc(N2CCOCC2)nc(N2CCN(C(=O)Cn3cc(CCCN=C(N)N)nn3)CC2)n1 | – | inconclusive: 16.4 µM [rising, single point]
C/C(COc1ccccc1)=N\NC(=O)c1nnn(-c2nonc2N)c1CSc1ccc(C)cc1 | inconclusive: -16.6% | –
COC(=O)[C@@]12C[C@@H](CC(=O)NCc3ccccc3)C(=O)N(Cc3ccco3)C1=CCC(C)(C)C2 | – | inconclusive: 7.31 µM [cytotoxic, partial curve, poor fit]
COc1ccc(S(=O)(=O)NCC(c2ccc(C)cc2)N2CCN(C)CC2)cc1 (stereo not drawn) | – | inactive
Cc1ccc(C(=O)N2CCN(c3cccc(Cl)c3)CC2)cc1C | – | inconclusive: 29.1 µM [cytotoxic, single point]
CCOc1ccccc1NC(=O)c1ccc(OCC(=O)N2CCOCC2)c(OC)c1 | – | inactive
CCCNc1nc(Cl)nc(NC(C)(C)C)n1 | – | inactive

Part of the list above, comma-delimited:
SMILES,"activity change, negative = cytotoxicity",Potency
C/C(=N\NC(N)=S)c1ccccc1,–,"inconclusive: 14.6 µM [cytotoxic, partial curve]"
Cc1cn([C@H]2C[C@H](O)[C@@H](/C=C/C(=O)NCCN3CCCCC3)O2)c(=O)[nH]c1=O,–,inactive
Cc1ccc2nc(-c3ccco3)c(CC3CCCCC3)n2c1,–,inactive

(further entries)

SMILES | activity change, negative = cytotoxicity | Potency
COc1cc(-c2n[nH]c(=S)n2-c2cccc(C(F)(F)F)c2)cc(OC)c1OC | – | active: 23.1 µM
CC(C)n1cnc2cc(NCc3ccccn3)ccc21 | – | inconclusive: 23.1 µM [cytotoxic, single point]
CCn1ccc2c(OCC(=O)Nc3ccc(C(C)=O)cc3)cccc2c1=O | – | inactive
CN(C1CCCCC1)S(=O)(=O)c1ccc2c(c1)c(=O)c(C(=O)NCc1ccc(F)cc1)cn2C | – | inactive
O=C1[C@@H](Oc2ccccc2)[C@@H](c2ccncc2)N1c1ccncc1 | – | inactive
CCCCOc1ccc(CONS(=O)(=O)c2ccc(NC(C)=O)cc2)cc1Cl | – | active: 14.6 µM
Cc1nn2c(CN(C(=O)COc3ccccc3)c3ccccc3)nnc2c2ccccc12 | – | active: 4.61 µM
Cc1ccc(S[C@@H](CCN2CC[C@H](NC(=O)OCc3ccccc3)CCC2=O)c2ccccc2)cc1 | – | inconclusive: 16.4 µM [cytotoxic, single point] and inconclusive: 651 nM [cytotoxic, full curve]
Cc1[nH]cnc1C(=O)N/N=C/c1ccc([N+](=O)[O-])s1 | – | inconclusive: 29.1 µM [cytotoxic, single point]
O=C(NCC(=O)N1CC=C(c2ccccc2)CC1)c1ccccc1Br | – | inconclusive: 25.9 µM [cytotoxic, single point]
O=C(Nc1ccc([N+](=O)[O-])cc1)c1cn(-c2ccccc2)nc1-c1cc2ccccc2o1 | – | inconclusive: 20.6 µM [cytotoxic, partial curve, poor fit]
CCC1Oc2nc(SC)nnc2-c2ccccc2N1C(=O)c1ccccc1 (stereo not drawn) | – | inconclusive: 29.1 µM [cytotoxic, single point]
CC1(C)Cc2c(cnn2-c2ccccc2)-c2c1c1ccccc1n2CC(O)CBr (stereo not drawn) | – | inconclusive: 16.4 µM [cytotoxic, single point]
Cc1nc(C)c(-c2nnc(-c3ccc(C(C)(C)C)cc3)o2)cc1C(=O)NN | – | inactive
Nc1c(C(=O)O)sc2nc3c(cc12)CCCC3 | – | inactive
CCOC(=O)c1c(NC(=S)N2CCN(C)CC2)sc2c1CCN(C(=O)OCC)C2 | – | inactive
Cc1ccc(SCCN2CCC(C(C)(C)C)CCC2=O)cc1 (stereo not drawn) | – | inconclusive: 16.4 µM [cytotoxic, partial curve]
COc1cccc(NC(=O)COc2cccc(-n3cnnn3)c2)c1 | – | inactive
Cc1nn(Cc2ccccc2Cl)c(C)c1NC(=O)c1cc(-c2ccc(F)cc2)on1 | – | inactive
Nc1nnc(N2CCCCC2)s1 | – | inconclusive: 35.5 µM [rising, single point]
CC1CC2=C(CC1/C=N/NC(N)=S)C(C)(C)CCC2 (stereo not drawn) | – | inconclusive: 29.1 µM [cytotoxic, single point]
C[C@H](NC(=O)c1nc[nH]c1C(=O)N[C@@H](CCCCNC(=O)OC(C)(C)C)C(=O)OC(C)(C)C)c1ccccc1 | – | active: 20.6 µM
Cn1c(N2CCN(S(=O)(=O)c3ccc(F)cc3)CC2)nc2ccccc21 | – | inconclusive: 16.4 µM [cytotoxic, single point]
